# Values from PubChem BioAssay AID504744 (Drosophila RNAi Screening Center, 2011).
# Screen: 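Find genes whose loss alters insulin-driven dAkt phosphorylation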 (primary screen)
# Cells: Drosophila Kc167 cells
# Reagent: long dsRNA against Drosophila genes, 250 ng dsRNA per well of a 384-well plate
# Duration: 3 days of knock-down, then overnight serum-free starvation before stimulation
# Conditions: bovine insulin at 387 nM for 10 minutes after 12 h without serum
# Detection: 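In-cell antibody fluorescence for phospho-dAkt in each well over DNA-dye signal, with log2 residuals expressed as z-scores adjusted for cell count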
# Call rule: 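Under insulin, a gene counts as a hit if the average z-score of two replicates lies above 2.5 or below -2.5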
# The screen tested about 23,000 reagents; below is a random part of those that have a named target and a result. In the full data, 98 (0.43%) got an active call. 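Only hit calls are given; the phospho-dAkt signals, z-scores and hit direction were not deposited.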 Names joined by + are all predicted targets of the reagent.
gene,amplicon,Outcome
wap,DRSC20626,inactive
Cdc27,DRSC11112,inactive
Mccc1,DRSC15417,inactive
RluA-2,DRSC02939,inactive
CG1492,DRSC19605,inactive
PK1-R,DRSC16577,inactive
Tsp97E,DRSC16019,inactive
a6,DRSC18733,inactive
CG11380,DRSC18632,inactive
Pus7,DRSC10703,inactive
St2,DRSC15142,inactive
St2,DRSC22624,inactive
CG13786,DRSC02289,inactive
RhoGAPp190,DRSC20097,inactive
RhoGAPp190,DRSC20099,inactive
Coq3,DRSC03168,inactive
DIP-theta,DRSC00885,inactive
DIP-theta,DRSC02340,inactive
DIP-theta,DRSC02341,inactive
CG3776,DRSC04417,inactive
CG10209,DRSC05980,inactive
Gr64b,DRSC08444,inactive
COX6B,DRSC19590,inactive
CG7914,DRSC20068,inactive
CG11594,DRSC08207,inactive
Mkk4,DRSC16739,inactive
Lst,DRSC07146,inactive
CG2841,DRSC17699,inactive
CG2841,DRSC18824,inactive
CG2841,DRSC22106,inactive
lbm,DRSC07643,inactive
Mfe2,DRSC19869,inactive
CG34135 + Nasp,DRSC16397,inactive
MESR4,DRSC06901,inactive
CG7720,DRSC16306,inactive
CG7720,DRSC16307,inactive
cmb,DRSC09790,inactive
CG7300,DRSC03044,inactive
Shab,DRSC08013,inactive
Shab,DRSC08643,inactive
Shab,DRSC08699,inactive
RluA-1,DRSC02240,inactive
RluA-1,DRSC03060,inactive
Ir41a,DRSC04730,inactive
Ir41a,DRSC04875,inactive
eIF3j,DRSC06107,inactive
spz,DRSC17065,inactive
CG31515,DRSC13610,inactive
CG9447,DRSC05008,inactive
CG1827,DRSC06719,inactive
CG9411,DRSC20184,active
CG7271,DRSC22561,inactive
qua,DRSC03598,inactive
CG6052,DRSC10574,inactive
CG32374,DRSC10986,inactive
Ald1,DRSC14109,inactive
CG32548,DRSC19627,inactive
CG32548,DRSC19982,inactive
Spn75F,DRSC09589,inactive
ZAP3,DRSC17852,inactive
ZAP3,DRSC17853,inactive
ZAP3,DRSC18249,inactive
CG13312,DRSC09983,inactive
anne,DRSC17103,inactive
PDZ-GEF,DRSC03231,inactive
CG34217,DRSC05083,inactive
Frmd5,DRSC02802,inactive
CG4362,DRSC15567,inactive
Cyp4s3,DRSC20241,inactive
Cyp4s3,DRSC22340,inactive
PPO2,DRSC07102,inactive
rdgA,DRSC17863,inactive
rdgA,DRSC18036,inactive
rdgA,DRSC18827,inactive
TfIIEbeta,DRSC08701,inactive
CG32835 (retired record),DRSC22693,inactive
tomboy40,DRSC04918,inactive
AgmNAT,DRSC18072,inactive
wge,DRSC15246,inactive
wge,DRSC15672,inactive
mei-9,DRSC18792,inactive
PolD3,DRSC01961,inactive
ssp6,DRSC08791,inactive
ssp6,DRSC10677,inactive
nsl1,DRSC15625,inactive
PH4alphaEFB,DRSC14473,inactive
PH4alphaEFB,DRSC14950,inactive
Ir76a,DRSC10987,inactive
Ran,DRSC20364,inactive
RhoGEF4,DRSC11011,inactive
dl,DRSC03520,inactive
dl,DRSC03521,inactive
Arp3,DRSC09669,inactive
GCC185,DRSC15493,inactive
CG11865,DRSC01872,inactive
CG34433,DRSC15077,inactive
CG17803,DRSC15275,inactive
CG17803,DRSC22811,inactive
SdhB,DRSC05018,inactive
SdhB,DRSC21367,inactive
Acer,DRSC01852,inactive
Cyp6d5,DRSC16634,inactive
Socs44A,DRSC06828,inactive
Arl2,DRSC14117,inactive
Dop1R1,DRSC13021,inactive
Dop1R1,DRSC16652,inactive
CG2162,DRSC08557,inactive

Reformatted: entries from further up
{"gene": "ssp6", "amplicon": "DRSC10677", "Outcome": "inactive"}
{"gene": "nsl1", "amplicon": "DRSC15625", "Outcome": "inactive"}
{"gene": "PH4alphaEFB", "amplicon": "DRSC14473", "Outcome": "inactive"}
{"gene": "PH4alphaEFB", "amplicon": "DRSC14950", "Outcome": "inactive"}
{"gene": "Ir76a", "amplicon": "DRSC10987", "Outcome": "inactive"}
{"gene": "Ran", "amplicon": "DRSC20364", "Outcome": "inactive"}
{"gene": "RhoGEF4", "amplicon": "DRSC11011", "Outcome": "inactive"}
{"gene": "dl", "amplicon": "DRSC03520", "Outcome": "inactive"}
{"gene": "dl", "amplicon": "DRSC03521", "Outcome": "inactive"}
{"gene": "Arp3", "amplicon": "DRSC09669", "Outcome": "inactive"}
{"gene": "GCC185", "amplicon": "DRSC15493", "Outcome": "inactive"}
{"gene": "CG11865", "amplicon": "DRSC01872", "Outcome": "inactive"}
{"gene": "CG34433", "amplicon": "DRSC15077", "Outcome": "inactive"}
